Among all 1,100 compounds or so, about 150 (14%) were called active. Roughly 1% stayed inconclusive and do not appear here.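 Rule for the calls: active = inhibition above about 50% in both repeat tests (limit read from the data); inconclusive = one repeat under the set limit, the other over it; inactive = both repeats under the set limit.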 The list shows a part of the results, in another mix than the full data.
Test: antileishmanial activity against promastigotes – 1 µM repeat of primary hits, confirmation (AID 1258)
Settings: L. major promastigote growth, resazurin fluorescence, 48 h; at 1 µM; stronger effect = higher value
Summary of the method: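 Assay system: L. major promastigotes | Input: 5,000 promastigotes per well | Dosing: 1 µM single concentration | Buffer or medium: M199, 10% heat-inactivated FBS | Read-out basis: Promastigote viability as inhibition relative to DMSO MAX/MIN controls | Benchmarks: DMSO high/low controls plus tamoxifen reference | Times: 44 h compound exposure, 4 h dye incubation, 28 °C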

Row | Structure (SMILES) | inhibition
1 | Cc1nc2ccccn2c1P(=S)(N1CCCCC1)N1CCCCC1 | inactive: -20.1%
2 | C[N+]12CN3CN(CN(C3)C1)C2 | inactive: -12.4%

From PubChem BioAssay AID1258 (University of Pittsburgh Molecular Library Screening Center, 2008)
